# Measurements as given in the supplement of paper PMC8728848.
# This is one part of the list.
# B1: RobpsCRA (Robinia pseudoacacia) (protein)
# chain: IKGGYWYSGSGLAVSDINPSHFTHLFCAFADLDPNTNKLTISSSNAAAFSTFTQTVRAKNPSVKTLLSIGGGGGRALAAVFANMASQASRRKSFIDSSIQLARRNNFHGLDLDWEYPSSDIDKTNFASLIREWRAAVATESSTSGTPALLLSAAVGGSDQITPLKYYPGEAIANNLDWVNVMTYDLYTSDSYPTLTQPPAPLFYPRGIFSADEGITKWIQSGVPESKLALGLPFYGFKWRLSDPNNHGLFAPATQGLGAVKYKDIVNTGGQVEFDSTYVTNYCFKGTDWYGYDDTQSISAKVAYAKQRGLFGYFAWHIEQDSNWALS
# How the values were obtained:
# Test in all cases: glycan array binding signal (z-score within array); higher = stronger binding
# Conditions in all cases: glycan notation: IUPAC condensed, linker removed
# Fuc(a1-2)Gal = target: Fuc(a1-2)Gal
# Summary of the method: (§1)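 The binding signal is a Z-score computed within each array and averaged over linkers. Arrays of the same protein sequence at different concentrations or buffers were also averaged together. Data originate from 3228 arrays in the Consortium for Functional Glycomics database, kept only where the protein sequence was available.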
# Fuc(a1-2)Gal(b1-3)GalNAc = target: Fuc(a1-2)Gal(b1-3)GalNAc
# Summary of the method: as §1
# [1] = target: Fuc(a1-2)Gal(b1-3)GalNAc(a1-3)[Fuc(a1-2)]Gal(b1-4)Glc
# Summary of the method: as §1
# [2] = target: Fuc(a1-2)Gal(b1-3)GalNAc(a1-3)[Fuc(a1-2)]Gal(b1-4)GlcNAc
# Summary of the method: as §1
# [3] = target: Fuc(a1-2)Gal(b1-3)GalNAc(b1-3)Gal
# Summary of the method: as §1
# [4] = target: Fuc(a1-2)Gal(b1-3)GalNAc(b1-3)Gal(a1-4)Gal(b1-4)Glc
# Summary of the method: as §1
# [5] = target: Fuc(a1-2)Gal(b1-3)GalNAc(b1-4)[Neu5Ac(a2-3)]Gal(b1-4)Glc
# Summary of the method: as §1
# Fuc(a1-2)Gal(b1-3)GlcNAc = target: Fuc(a1-2)Gal(b1-3)GlcNAc
# Summary of the method: as §1
# [6] = target: Fuc(a1-2)Gal(b1-3)GlcNAc(b1-2)Man(a1-3)[Fuc(a1-2)Gal(b1-3)GlcNAc(b1-2)Man(a1-6)]Man(b1-4)GlcNAc(b1-4)GlcNAc
# Summary of the method: as §1
# [7] = target: Fuc(a1-2)Gal(b1-3)GlcNAc(b1-2)Man(a1-3)[Fuc(a1-2)Gal(b1-3)GlcNAc(b1-2)Man(a1-6)]Man(b1-4)GlcNAc(b1-4)[Fuc(a1-6)]GlcNAc
# Summary of the method: as §1
# [8] = target: Fuc(a1-2)Gal(b1-3)GlcNAc(b1-3)Gal(b1-4)Glc
# Summary of the method: as §1
# [9] = target: Fuc(a1-2)Gal(b1-3)GlcNAc(b1-3)GalNAc
# Summary of the method: as §1
# [10] = target: Fuc(a1-2)Gal(b1-3)GlcNAc(b1-3)[Fuc(a1-2)Gal(b1-3)GlcNAc(b1-6)]GalNAc
# Summary of the method: as §1
# [11] = target: Fuc(a1-2)Gal(b1-3)GlcNAc(b1-3)[Gal(b1-4)GlcNAc(b1-6)]Gal(b1-4)Glc
# Summary of the method: as §1
# [12] = target: Fuc(a1-2)Gal(b1-3)GlcNAc(b1-3)[Neu5Ac(a2-6)Gal(b1-4)GlcNAc(b1-6)]Gal(b1-4)Glc
# Summary of the method: as §1
# [13] = target: Fuc(a1-2)Gal(b1-3)GlcNAc6S
# Summary of the method: as §1
# [14] = target: Fuc(a1-2)Gal(b1-3)[Fuc(a1-4)]GlcNAc
# Summary of the method: as §1
# [15] = target: Fuc(a1-2)Gal(b1-3)[Fuc(a1-4)]GlcNAc(b1-2)Man(a1-3)[Fuc(a1-2)Gal(b1-3)[Fuc(a1-4)]GlcNAc(b1-2)Man(a1-3)]Man(b1-4)GlcNAc(b1-4)GlcNAc
# Summary of the method: as §1
# [16] = target: Fuc(a1-2)Gal(b1-3)[Fuc(a1-4)]GlcNAc(b1-2)Man(a1-3)[Fuc(a1-2)Gal(b1-3)[Fuc(a1-4)]GlcNAc(b1-2)Man(a1-6)]Man(b1-4)GlcNAc(b1-4)[Fuc(a1-6)]GlcNAc(b1-4)[Fuc(a1-6)]GlcNAc
# Summary of the method: as §1
# [17] = target: Fuc(a1-2)Gal(b1-3)[Fuc(a1-4)]GlcNAc(b1-3)[Fuc(a1-3)[Gal(b1-4)]GlcNAc(b1-6)]Gal(b1-4)Glc
# Summary of the method: as §1
# [18] = target: Fuc(a1-2)Gal(b1-3)[Fuc(a1-4)]GlcNAc(b1-3)[Gal(b1-4)GlcNAc(b1-6)]Gal(b1-4)Glc
# Summary of the method: as §1
# Fuc(a1-2)Gal(b1-4)Glc = target: Fuc(a1-2)Gal(b1-4)Glc
# Summary of the method: as §1
# Fuc(a1-2)Gal(b1-4)Glc6S = target: Fuc(a1-2)Gal(b1-4)Glc6S
# Summary of the method: as §1
# Fuc(a1-2)Gal(b1-4)GlcNAc = target: Fuc(a1-2)Gal(b1-4)GlcNAc
# Summary of the method: as §1
# [19] = target: Fuc(a1-2)Gal(b1-4)GlcNAc(b1-2)Man
# Summary of the method: as §1
# [20] = target: Fuc(a1-2)Gal(b1-4)GlcNAc(b1-2)Man(a1-3)[Fuc(a1-2)Gal(b1-4)GlcNAc(b1-2)Man(a1-6)]Man(b1-4)GlcNAc(b1-4)GlcNAc
# Summary of the method: as §1
# [21] = target: Fuc(a1-2)Gal(b1-4)GlcNAc(b1-2)Man(a1-3)[Fuc(a1-2)Gal(b1-4)GlcNAc(b1-2)Man(a1-6)]Man(b1-4)GlcNAc(b1-4)[Fuc(a1-6)]GlcNAc
# Summary of the method: as §1
# [22] = target: Fuc(a1-2)Gal(b1-4)GlcNAc(b1-2)[Fuc(a1-2)Gal(b1-4)GlcNAc(b1-4)]Man(a1-3)[Fuc(a1-2)Gal(b1-4)GlcNAc(b1-2)Man(a1-6)]Man(b1-4)GlcNAc(b1-4)GlcNAc
# Summary of the method: as §1
# [23] = target: Fuc(a1-2)Gal(b1-4)GlcNAc(b1-3)Gal(b1-4)GlcNAc
# Summary of the method: as §1
# [24] = target: Fuc(a1-2)Gal(b1-4)GlcNAc(b1-3)Gal(b1-4)GlcNAc(b1-2)Man(a1-3)[Fuc(a1-2)Gal(b1-4)GlcNAc(b1-3)Gal(b1-4)GlcNAc(b1-2)Man(a1-6)]Man(b1-4)GlcNAc(b1-4)GlcNAc
# Summary of the method: as §1
# [25] = target: Fuc(a1-2)Gal(b1-4)GlcNAc(b1-3)Gal(b1-4)GlcNAc(b1-3)Gal(b1-4)GlcNAc
# Summary of the method: as §1
# [26] = target: Fuc(a1-2)Gal(b1-4)GlcNAc(b1-3)GalNAc
# Summary of the method: as §1
# [27] = target: Fuc(a1-2)Gal(b1-4)GlcNAc(b1-3)[Fuc(a1-2)Gal(b1-4)GlcNAc(b1-6)]GalNAc
# Summary of the method: as §1
# [28] = target: Fuc(a1-2)Gal(b1-4)GlcNAc(b1-3)[Fuc(a1-3)[Gal(b1-4)]GlcNAc(b1-6)]Gal(b1-4)Glc
# Summary of the method: as §1
# [29] = target: Fuc(a1-2)Gal(b1-4)GlcNAc(b1-6)GalNAc
# Summary of the method: as §1
# [30] = target: Fuc(a1-2)Gal(b1-4)GlcNAc6S
# Summary of the method: as §1
# [31] = target: Fuc(a1-2)Gal(b1-4)[Fuc(a1-3)]GlcNAc
# Summary of the method: as §1
binder,measurement,setting,value
B1,glycan array binding signal (z-score),Fuc(a1-2)Gal,0.207
same,glycan array binding signal (z-score),Fuc(a1-2)Gal(b1-3)GalNAc,0.649
same,glycan array binding signal (z-score),[1],-0.338
same,glycan array binding signal (z-score),[2],-0.038
same,glycan array binding signal (z-score),[3],-0.261
same,glycan array binding signal (z-score),[4],-0.871
same,glycan array binding signal (z-score),[5],0.66
same,glycan array binding signal (z-score),Fuc(a1-2)Gal(b1-3)GlcNAc,0.099
same,glycan array binding signal (z-score),[6],-0.384
same,glycan array binding signal (z-score),[7],0.793
same,glycan array binding signal (z-score),[8],0.505
same,glycan array binding signal (z-score),[9],-0.523
same,glycan array binding signal (z-score),[10],-0.536
same,glycan array binding signal (z-score),[11],-0.335
same,glycan array binding signal (z-score),[12],-0.554
same,glycan array binding signal (z-score),[13],-0.782
same,glycan array binding signal (z-score),[14],0.547
same,glycan array binding signal (z-score),[15],-0.518
same,glycan array binding signal (z-score),[16],-0.179
same,glycan array binding signal (z-score),[17],-0.147
same,glycan array binding signal (z-score),[18],0.032
same,glycan array binding signal (z-score),Fuc(a1-2)Gal(b1-4)Glc,0.123
same,glycan array binding signal (z-score),Fuc(a1-2)Gal(b1-4)Glc6S,0.304
same,glycan array binding signal (z-score),Fuc(a1-2)Gal(b1-4)GlcNAc,-0.159
same,glycan array binding signal (z-score),[19],-0.338
same,glycan array binding signal (z-score),[20],-0.573
same,glycan array binding signal (z-score),[21],1.02
same,glycan array binding signal (z-score),[22],-0.123
same,glycan array binding signal (z-score),[23],-0.435
same,glycan array binding signal (z-score),[24],0.088
same,glycan array binding signal (z-score),[25],-0.287
same,glycan array binding signal (z-score),[26],-0.611
same,glycan array binding signal (z-score),[27],-0.359
same,glycan array binding signal (z-score),[28],-0.598
same,glycan array binding signal (z-score),[29],-0.674
same,glycan array binding signal (z-score),[30],0.244
same,glycan array binding signal (z-score),[31],-0.156

# Part of the list above, bar-delimited.
binder | measurement | setting | value
B1 | glycan array binding signal (z-score) | Fuc(a1-2)Gal(b1-3)GalNAc | 0.649
same | glycan array binding signal (z-score) | [1] | -0.338
same | glycan array binding signal (z-score) | [8] | 0.505
same | glycan array binding signal (z-score) | [11] | -0.335
same | glycan array binding signal (z-score) | Fuc(a1-2)Gal(b1-4)GlcNAc | -0.159
same | glycan array binding signal (z-score) | [21] | 1.02
same | glycan array binding signal (z-score) | [22] | -0.123
same | glycan array binding signal (z-score) | [24] | 0.088
same | glycan array binding signal (z-score) | [28] | -0.598
